Drawing on patent publication US20170305994A1, this text covers binding for 5 molecules.

No constants are given. Whether binding was seen depends on the method and setting. Some entries that bind do so weakly or less than the wild type.

Test [1] addresses T1, human DR3 with the death domain deleted (ΔM339-P417 of SEQ ID NO:1), expressed on CHOK1SV cells (human) (UniProt Q93038).
T1 sequence: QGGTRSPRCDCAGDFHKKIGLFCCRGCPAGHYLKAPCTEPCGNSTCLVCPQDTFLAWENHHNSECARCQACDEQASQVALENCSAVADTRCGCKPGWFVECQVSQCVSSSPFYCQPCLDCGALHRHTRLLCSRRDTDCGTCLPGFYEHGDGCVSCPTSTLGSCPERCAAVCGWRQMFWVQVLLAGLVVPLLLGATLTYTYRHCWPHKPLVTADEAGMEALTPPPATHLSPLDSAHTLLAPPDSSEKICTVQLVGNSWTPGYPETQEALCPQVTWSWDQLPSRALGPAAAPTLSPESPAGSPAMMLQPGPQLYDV
Kind of test: flow cytometry, inhibition of TL1A binding to DR3 expressing cells, 2 µg/ml Ab; blocked ligand TL1A-flag tag.

In test [2] the target is T1, human DR3 with the death domain deleted (ΔM339-P417 of SEQ ID NO:1), expressed on CHOK1SV cells (human). Kind of test: flow cytometry (FACSArray), inhibition of hTL1A binding to membrane bound DR3, titration 0.01 to 25 µg/ml; blocked ligand hTL1A.
For test [3] the target is unchanged. Kind of test: flow cytometry, mean fluorescence on DR3 expressing cells, 2 µg/ml Ab.

B1: 0073 (murine mAb purified from hybridoma 28F26A3) (antibody, V domains shown)
VH: EVKVVESGGGLVKPGGSLKLSCAASGFVFSSYDMSWVRQIPEKRLEWVAAISSGDYYTYYPDSVKGRFTISRDDARNTLYLQMSSLRSEDTALYYCARHRGGNYPQYAMDYWGQGTSVTVSS
VL: DILLTQSPASFAVSLGQRATISCRASKSVSTSGYNYIHWYQQKPGQPPKLLIYLTSNLESGVPARFSGSGSGTDFTLNIHPVEEEDAATYYCQHSRELPFTFGSGTKLEIKR
Take B1: the binding result in test [1], in test [2] and in test [3] was “binds” throughout.

B2: 0088 (Fab from papain cleavage of mAb 0073) (Fab, V domains shown)
VH: EVKVVESGGGLVKPGGSLKLSCAASGFVFSSYDMSWVRQIPEKRLEWVAAISSGDYYTYYPDSVKGRFTISRDDARNTLYLQMSSLRSEDTALYYCARHRGGNYPQYAMDYWGQGTSVTVSS
VL: DILLTQSPASFAVSLGQRATISCRASKSVSTSGYNYIHWYQQKPGQPPKLLIYLTSNLESGVPARFSGSGSGTDFTLNIHPVEEEDAATYYCQHSRELPFTFGSGTKLEIKR
For B2, the binding entry in test [2] is recorded as “binds”.

B3: 0070 (murine mAb purified from hybridoma 27F16A1) (antibody, V domains shown)
VH: EVQLVESGGDFVKPGGSLKLSCAASGFTFNNYGMSWVRQTPDKRLEWVAAISSGVTYTYYPDTVKGRFTISRDNAKNTLYLHMSSLKSEDTAMYYCGRHDDYGNHFDYWGQGTTLTVSS
VL: DIVMTQSPSSLAMSLGQRVTMNCKSSQSLLNSHNQKNYLAWYQQKPGQSPKLLVYFASSRESGVPDRFIGSGSGTDFTLTISSVQAEDLADYFCQQHYSTPFTFGSGTKLEIKR
As for B3, the binding result in test [1] and in test [3] was “binds” each time.

B4: 0072 (murine mAb purified from hybridoma 27F44A2) (antibody, mouse IgG1, V domains shown)
VH: EVKLVESGGGLVKPGGSLKLSCSASGFAFSNYDMSWVRQTPEKRLEWVAAFSSDGYTFYPDSLKGRFTISRDNARNTLYLQMSSLGSEDTALYCCARHADYANYPVMDYWGQGTSVTVSS
VL: DIVLAQSPASLLVSLGQRATISCRASKSVSTSGYSYMHWYQQKPGQPPKLLIYLASNLESGVPARFSGSGSGTDFTLNIHPVEEEDAATYYCQHSRELPLTFGAGTMLELKR
With B4, the binding entry in test [1], in test [2] and in test [3] was “binds” in each case.

B5: 0087 (Fab from papain cleavage of mAb 0072) (Fab, V domains shown)
VH: EVKLVESGGGLVKPGGSLKLSCSASGFAFSNYDMSWVRQTPEKRLEWVAAFSSDGYTFYPDSLKGRFTISRDNARNTLYLQMSSLGSEDTALYCCARHADYANYPVMDYWGQGTSVTVSS
VL: DIVLAQSPASLLVSLGQRATISCRASKSVSTSGYSYMHWYQQKPGQPPKLLIYLASNLESGVPARFSGSGSGTDFTLNIHPVEEEDAATYYCQHSRELPLTFGAGTMLELKR
Turning to B5, in test [2], the binding entry was “binds”.
